Test results as given in doi:10.1101/2022.03.31.486616.
No constants are given. Whether binding was seen depends on the method and setting. In cells and extracts the contact can be indirect. A yes stands for co-enrichment or nearness to the bait. Other partners may have been found. Tags and fused reporters may be left off the sequences shown.

Protein sequences, listed by entry. Tags and fused reporters are not part of them.
UniProt Q9KVG7, whole entry: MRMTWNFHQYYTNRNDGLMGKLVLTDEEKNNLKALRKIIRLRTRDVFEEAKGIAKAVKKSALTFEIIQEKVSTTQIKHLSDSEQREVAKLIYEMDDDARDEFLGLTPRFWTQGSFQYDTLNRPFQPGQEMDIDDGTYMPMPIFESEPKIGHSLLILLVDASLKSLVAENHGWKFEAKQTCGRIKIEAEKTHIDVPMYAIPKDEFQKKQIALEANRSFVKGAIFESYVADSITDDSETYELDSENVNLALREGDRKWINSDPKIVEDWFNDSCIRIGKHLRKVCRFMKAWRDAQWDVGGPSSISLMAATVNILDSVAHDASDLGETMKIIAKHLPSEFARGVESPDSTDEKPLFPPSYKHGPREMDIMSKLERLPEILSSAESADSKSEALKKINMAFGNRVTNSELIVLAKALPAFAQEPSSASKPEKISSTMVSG

Target: V. cholerae cGAS (DncV) (V. cholerae) (UniProt Q9KVG7)
Test: affinity purification with mass spectrometry

B1: V. cholerae Cap2 (CD-NTase-associated protein 2), untagged (enzyme, UniProt Q9KVG6 1-584)
chain: MKQELHHTLLGCGFRYTPAKQMPKGILLDTKSRRKGYYVKEYSTKGGVFVIALVLWNDPHIQLPFAYILQQPEQYKGRLLPHINFGFCLCYVTQMEADWNSNDLKSTYQDVDEQIQLTLDNSVASVESGTSNDVELEGEFSAYWQSEEELYLLAKPSRKAQLKAHLVEAELSSGSIRREYVAACSEQSEELVKWLNQRKFDESSLQEVSITTHCISVKPNRLAGVNWPPSCLREVLSWLKLVDYSAHARTVTLLMAKRTKRHILLFDVEGQDELAVYLELNLDVIGKRYFGRNAARKRNINNEAALLGGKFVSANFKRLGVTRADRDTLLSRNQSRPDVGNLSQKRIALIGCGTIGGYLAELLLRSGAGCGENYFHLYDNDSFKPHNFARHSLTAHNFGLAKSIALANSLKEAVHIAQSIKGIDRQFPIQADVLSKYDIVIDATGRPPVSKRLAAVARTLIADIRPVLIHAFNDGNGRASKVLVDDGRCCYGCMMADPAVYRNNIDLRFEGIDLAKEKHISCGSTYTPYDAAVSHITAALAQEAVLNTLEHTLPWNYSEHMLDGSRSKKPRTLKRFSGCNICDE
With B1 the binding was “binds”.
